Results are given in words; binding and its absence hold for the method and conditions named. Some results given as binding are weak or reduced against the parent protein; the word gives no strength.
Assays:
Assay in all cases: peptide or protein array; HuProt human proteome microarray; 5 ug/5 ml biotin-labelled LUBAC or OTULIN in solution, 1 h at room temperature; Cy5-streptavidin, scanned at 635 nm; BSA as negative control; hits: Z-score >= 3 and I_(Mean_Ratio) >= 1.4; both purified
[1] = biological target: ABI1 (spot on the microarray) (human) (UniProt Q8IZP0)
MSI2 (human) = MSI2 (human) (UniProt Q96DH6)
PTK2 (human) = PTK2 (human) (UniProt Q05397)
SAMHD1 (human) = SAMHD1 (human) (UniProt Q9Y3Z3)
TBXAS1 (human) = biological target: T1, TBXAS1 (human) (UniProt P24557)
T1 sequence: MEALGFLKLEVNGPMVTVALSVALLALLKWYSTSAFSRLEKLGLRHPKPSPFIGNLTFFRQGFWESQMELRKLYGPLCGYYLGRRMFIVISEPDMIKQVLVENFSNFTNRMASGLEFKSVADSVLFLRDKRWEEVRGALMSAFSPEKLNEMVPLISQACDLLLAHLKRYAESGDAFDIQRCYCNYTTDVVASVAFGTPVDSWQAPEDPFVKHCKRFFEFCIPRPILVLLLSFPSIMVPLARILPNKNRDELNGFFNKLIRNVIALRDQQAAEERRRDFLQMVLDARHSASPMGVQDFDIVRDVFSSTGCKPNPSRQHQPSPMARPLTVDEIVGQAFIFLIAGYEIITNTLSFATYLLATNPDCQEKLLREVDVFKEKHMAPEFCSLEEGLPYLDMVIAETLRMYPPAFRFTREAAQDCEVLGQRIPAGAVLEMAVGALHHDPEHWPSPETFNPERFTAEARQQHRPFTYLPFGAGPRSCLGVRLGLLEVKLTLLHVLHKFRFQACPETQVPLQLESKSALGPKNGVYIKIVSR

Amino acid sequences for entries named in this document (tags omitted).
UniProt Q8IZP0: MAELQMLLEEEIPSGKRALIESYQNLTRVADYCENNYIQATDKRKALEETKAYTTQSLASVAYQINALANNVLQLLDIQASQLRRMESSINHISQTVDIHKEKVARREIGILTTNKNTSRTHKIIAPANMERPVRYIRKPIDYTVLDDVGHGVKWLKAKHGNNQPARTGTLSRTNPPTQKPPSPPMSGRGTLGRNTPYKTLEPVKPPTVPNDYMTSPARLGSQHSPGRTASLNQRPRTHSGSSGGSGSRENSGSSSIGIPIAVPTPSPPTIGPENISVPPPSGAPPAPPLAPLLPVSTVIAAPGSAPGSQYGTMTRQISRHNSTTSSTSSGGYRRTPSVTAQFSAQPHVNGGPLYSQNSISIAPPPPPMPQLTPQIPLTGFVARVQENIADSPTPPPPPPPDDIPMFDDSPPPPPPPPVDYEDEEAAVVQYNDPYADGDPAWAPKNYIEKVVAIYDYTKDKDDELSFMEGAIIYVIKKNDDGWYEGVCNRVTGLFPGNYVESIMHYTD
UniProt Q96DH6: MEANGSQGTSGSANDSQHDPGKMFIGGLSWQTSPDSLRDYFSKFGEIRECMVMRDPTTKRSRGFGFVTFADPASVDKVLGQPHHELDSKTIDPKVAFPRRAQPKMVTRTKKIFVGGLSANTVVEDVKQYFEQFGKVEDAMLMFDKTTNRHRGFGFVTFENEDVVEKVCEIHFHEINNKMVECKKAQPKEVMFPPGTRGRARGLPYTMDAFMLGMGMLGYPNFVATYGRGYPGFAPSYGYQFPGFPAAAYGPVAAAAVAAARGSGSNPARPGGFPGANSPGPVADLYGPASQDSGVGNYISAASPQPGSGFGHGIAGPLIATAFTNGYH
UniProt Q05397: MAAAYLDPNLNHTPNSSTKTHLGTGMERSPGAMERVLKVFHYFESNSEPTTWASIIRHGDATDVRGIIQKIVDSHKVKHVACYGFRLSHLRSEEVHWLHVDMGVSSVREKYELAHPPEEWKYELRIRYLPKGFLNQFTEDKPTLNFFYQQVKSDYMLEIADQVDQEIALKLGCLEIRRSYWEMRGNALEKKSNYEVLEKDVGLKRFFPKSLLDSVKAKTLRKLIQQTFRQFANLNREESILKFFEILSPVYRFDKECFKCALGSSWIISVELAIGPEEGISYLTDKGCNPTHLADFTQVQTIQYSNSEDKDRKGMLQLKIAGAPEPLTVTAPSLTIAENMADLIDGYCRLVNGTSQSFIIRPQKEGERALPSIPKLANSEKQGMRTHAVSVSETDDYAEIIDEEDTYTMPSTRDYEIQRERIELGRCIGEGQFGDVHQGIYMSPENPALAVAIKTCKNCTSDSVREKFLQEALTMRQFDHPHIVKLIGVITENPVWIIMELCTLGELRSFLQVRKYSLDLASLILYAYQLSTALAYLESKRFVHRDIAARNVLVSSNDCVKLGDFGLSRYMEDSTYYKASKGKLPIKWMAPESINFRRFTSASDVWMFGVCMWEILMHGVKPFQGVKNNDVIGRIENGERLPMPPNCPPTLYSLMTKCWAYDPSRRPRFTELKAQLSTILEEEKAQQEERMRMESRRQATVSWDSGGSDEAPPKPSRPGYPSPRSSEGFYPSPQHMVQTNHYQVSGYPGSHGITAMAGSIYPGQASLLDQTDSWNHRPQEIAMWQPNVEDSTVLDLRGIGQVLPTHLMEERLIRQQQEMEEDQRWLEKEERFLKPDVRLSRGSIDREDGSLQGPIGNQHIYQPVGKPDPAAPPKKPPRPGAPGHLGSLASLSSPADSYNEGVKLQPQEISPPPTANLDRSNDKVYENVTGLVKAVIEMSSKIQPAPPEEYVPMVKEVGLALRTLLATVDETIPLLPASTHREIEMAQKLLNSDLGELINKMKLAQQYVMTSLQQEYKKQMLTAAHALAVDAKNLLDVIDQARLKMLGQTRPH
UniProt Q9Y3Z3: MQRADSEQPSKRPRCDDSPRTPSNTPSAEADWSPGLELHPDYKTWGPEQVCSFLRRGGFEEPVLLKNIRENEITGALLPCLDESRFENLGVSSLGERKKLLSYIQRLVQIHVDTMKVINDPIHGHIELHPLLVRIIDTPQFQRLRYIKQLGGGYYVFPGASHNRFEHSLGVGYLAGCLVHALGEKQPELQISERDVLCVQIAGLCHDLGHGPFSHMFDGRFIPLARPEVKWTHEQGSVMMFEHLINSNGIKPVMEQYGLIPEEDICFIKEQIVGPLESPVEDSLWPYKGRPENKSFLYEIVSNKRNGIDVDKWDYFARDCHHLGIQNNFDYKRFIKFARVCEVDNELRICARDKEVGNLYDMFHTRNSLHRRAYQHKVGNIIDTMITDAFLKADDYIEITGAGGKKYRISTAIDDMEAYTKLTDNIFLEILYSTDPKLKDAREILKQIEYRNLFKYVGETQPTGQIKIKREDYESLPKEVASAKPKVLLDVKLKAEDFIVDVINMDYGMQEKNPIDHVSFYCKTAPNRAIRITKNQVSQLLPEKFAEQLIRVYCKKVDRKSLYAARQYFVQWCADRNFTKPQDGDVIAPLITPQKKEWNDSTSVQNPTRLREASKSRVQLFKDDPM

TCF7L1 (human) = biological target: T2, TCF7L1 (human) (UniProt Q9HCS4)
T2 sequence: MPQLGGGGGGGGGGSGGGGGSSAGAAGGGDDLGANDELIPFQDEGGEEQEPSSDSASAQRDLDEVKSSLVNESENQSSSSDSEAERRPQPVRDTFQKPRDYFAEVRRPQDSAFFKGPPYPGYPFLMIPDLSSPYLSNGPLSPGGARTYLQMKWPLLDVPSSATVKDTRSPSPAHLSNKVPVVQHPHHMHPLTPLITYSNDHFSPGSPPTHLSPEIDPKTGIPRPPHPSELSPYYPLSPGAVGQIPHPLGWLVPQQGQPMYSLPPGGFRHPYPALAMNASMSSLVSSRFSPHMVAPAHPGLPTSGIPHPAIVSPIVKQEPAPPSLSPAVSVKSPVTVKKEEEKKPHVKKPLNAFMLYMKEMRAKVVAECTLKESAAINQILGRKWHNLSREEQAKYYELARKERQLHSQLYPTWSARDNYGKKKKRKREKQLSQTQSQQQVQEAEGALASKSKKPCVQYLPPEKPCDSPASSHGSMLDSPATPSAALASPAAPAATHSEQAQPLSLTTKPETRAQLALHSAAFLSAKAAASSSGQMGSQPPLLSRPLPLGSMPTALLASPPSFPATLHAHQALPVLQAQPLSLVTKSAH

TRMT12 (human) = biological target: T3, TRMT12 (human) (UniProt Q53H54)
T3 sequence: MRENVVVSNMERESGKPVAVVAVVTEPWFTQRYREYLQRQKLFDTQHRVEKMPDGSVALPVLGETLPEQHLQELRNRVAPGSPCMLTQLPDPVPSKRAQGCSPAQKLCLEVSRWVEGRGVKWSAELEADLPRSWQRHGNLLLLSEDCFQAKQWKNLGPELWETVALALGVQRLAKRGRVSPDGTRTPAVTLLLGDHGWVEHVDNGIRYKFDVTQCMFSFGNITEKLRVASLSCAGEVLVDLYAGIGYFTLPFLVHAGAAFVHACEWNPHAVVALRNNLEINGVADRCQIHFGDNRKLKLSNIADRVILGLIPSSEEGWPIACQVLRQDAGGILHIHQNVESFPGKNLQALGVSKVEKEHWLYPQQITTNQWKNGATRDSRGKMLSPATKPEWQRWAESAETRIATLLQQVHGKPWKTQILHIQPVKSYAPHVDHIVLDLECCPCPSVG

Measured: binding

linear ubiquitin chain assembly complex (LUBAC), purified as HIS-tagged HOIP with the subunit HOIL-1, biotin-labelled (from UniProt Q96EP0 1-1072; Q9BYM8 1-510)
binds: all assays above

From article PMC8274477
